Reference: article doi:10.1101/2025.02.01.636034
Results are given in words; binding and its absence hold for the method and conditions named. Binding seen in cells or lysates may run through a third protein. Some entries that bind do so weakly or less than the wild type. Sequences can lack the tags named with a protein.

Biological target: FLAG-HHARI (Human homolog of Ariadne, wild type) (human), Q9Y4X5
Assay: co-IP
Details: remark: other sources report otherwise

B1: HA-RIG-I (Retinoic Acid-Inducible Gene I), O95786 1-925 (protein)
chain: MTTEQRRSLQAFQDYIRKTLDPTYILSYMAPWFREEEVQYIQAEKNNKGPMEAATLFLKFLLELQEEGWFRGFLDALDHAGYSGLYEAIESWDFKKIEKLEEYRLLLKRLQPEFKTRIIPTDIISDLSECLINQECEEILQICSTKGMMAGAEKLVECLLRSDKENWPKTLKLALEKERNKFSELWIVEKGIKDVETEDLEDKMETSDIQIFYQEDPECQNLSENSCPPSEVSDTNLYSPFKPRNYQLELALPAMKGKNTIICAPTGCGKTFVSLLICEHHLKKFPQGQKGKVVFFANQIPVYEQQKSVFSKYFERHGYRVTGISGATAENVPVEQIVENNDIIILTPQILVNNLKKGTIPSLSIFTLMIFDECHNTSKQHPYNMIMFNYLDQKLGGSSGPLPQVIGLTASVGVGDAKNTDEALDYICKLCASLDASVIATVKHNLEELEQVVYKPQKFFRKVESRISDKFKYIIAQLMRDTESLAKRICKDLENLSQIQNREFGTQKYEQWIVTVQKACMVFQMPDKDEESRICKALFLYTSHLRKYNDALIISEHARMKDALDYLKDFFSNVRAAGFDEIEQDLTQRFEEKLQELESVSRDPSNENPKLEDLCFILQEEYHLNPETITILFVKTRALVDALKNWIEGNPKLSFLKPGILTGRGKTNQNTGMTLPAQKCILDAFKASGDHNILIATSVADEGIDIAQCNLVILYEYVGNVIKMIQTRGRGRARGSKCFLLTSNAGVIEKEQINMYKEKMMNDSILRLQTWDEAVFREKILHIQTHEKFIRDSQEKPKPVPDKENKKLLCRKCKALACYTADVRVIEECHYTVLGDAFKECFVSRPHPKPKQFSSFEKRAKIFCARQNCSHDWGIHVKYKTFEIPVIKIESFVVEDIATGVQTLYSKWKDFHFEKIPFDPAEMSK
  binding: binds
